{
  "source": "patent US8754058B2",
  "about": "“Inhibitors of FAM3B gene, inhibitor compositions, inhibiting methods and applications of inhibitors in preparing pharmaceuticals” (Suzhou Ribo Life Science Company, Ltd., priority 2009, dated 2014)",
  "key": {"[1]": {"system": "target of FAM3B (mouse derived FAM3B gene)", "experiment": "double luciferase reporter assay of siRNA target plasmid co-transfected in HEK293a cells", "assay_type": "cell-based", "conditions": "10 nM small interfering nucleotide, 24 hours after transfection, FIG. 1"}, "[2]": {"system": "FAM3B mRNA in HepG2 cells", "experiment": "real-time PCR of FAM3B mRNA in transfected HepG2 cells", "assay_type": "cell-based, human", "conditions": "24 hours after transfection, FIG. 4"}, "[3]": {"system": "FAM3B protein in HepG2 cells", "experiment": "Western blot of FAM3B protein in transfected HepG2 cells", "assay_type": "cell-based, human", "conditions": "48 hours after transfection, Western blot grayscale, FIG. 5", "method": "The cells are digested with 0.25% trypsin 24 hours before the transfection, then the cells are counted and inoculated into the 24 well plate in a density of 1×10^5 cells/ml, and 1000 μl cells are added in each well. Lipofectamine™ 2000 liposome from Invitrogen Company is used for the transfection with the small interfering nucleotides obtained from example 1 (FAM3B-1 to FAM3B-32) respectively, and unrelated small interfering nucleotide (the sense strand: 5-[…]-3 (SEQ ID NO: 78); the antisense strand: 5-ACGUGACACGUUC GGAGAATT-3 (SEQ ID NO: 79)) is used as the negative control.\n(4) Inhibition on FAM3B Protein Expression by Using Small Interfering Nucleotides\nAfter the cells transfected according to step (2) in example 6 are cultured for 48 hours, the cells are disrupted by using the protein lysis buffer and the total proteins are extracted, and the protein sample is examined according to the standard procedure for Western blot. For the detection of FAM3B protein, the membrane is incubated with the rabbit derived anti-FAM3B antibody (R&D systems), the secondary antibody is the peroxidase labelled horse anti-rabbit antibody (Zhongshan Jinqiao); the antibody for detecting the internal reference β-actin: the primary antibody is mouse derived anti-β-actin antibody, and the secondary antibody is the peroxidase labelled goat anti-mouse antibody, and the results are subjected to grayscale comparison shown as FIG. 5."}, "[4]": {"system": "FAM3B mRNA in the hepatic tissues", "experiment": "real-time PCR of FAM3B mRNA in hepatic tissues of hepatic adipose infiltration model mice", "assay_type": "in vivo", "conditions": "tail i.v. injection, 15 days, FIG. 3"}},
  "note": "Some entries share one result that the patent states for a list of compounds. Some compounds share one range, which may span the group rather than tell each member. d = 2'-deoxy (DNA); r = 2'-OH (RNA)",
  "data": [
    {"substance": "FAM3B-34: siRNA, mouse FAM3B; sense 5′-AUCAACCACUCAGAUCAAUdTdT-3′; antisense 5′-AUUGAUCUGAGUGGUUGAUdTdT-3′ (sense AUCAACCACUCAGAUCAAUTT; antisense AUUGAUCUGAGUGGUUGAUTT; sugars from the 5' end r19 d2, backbone not given here)", "values": [
      {"measurement": "inhibitory activities on FAM3B gene (target of FAM3B)", "setting": "[1]", "result": "80-97%"}
    ]},
    {"substance": "FAM3B-11: siRNA, human FAM3B; sense 5′-CUCUGGACCGAUGACAAAGdTdT-3′; antisense 5′-CUUUGUCAUCGGUCCAGAGdTdT-3′ (sense CUCUGGACCGAUGACAAAGTT; antisense CUUUGUCAUCGGUCCAGAGTT; sugars from the 5' end r19 d2, backbone not given here)", "values": [
      {"measurement": "inhibitory rate on FAM3B mRNA in HepG2 cells", "setting": "[2]", "result": "higher than 80%"},
      {"measurement": "inhibitory rate on FAM3B protein level in HepG2 cells", "setting": "[3]", "result": "higher than 80%"}
    ]},
    {"substance": "FAM3B-39: siRNA, mouse FAM3B; sense 5′-GCAAAGAAAUCAAGAACAUdTdT-3′; antisense 5′-AUGUUCUUGAUUUCUUUGCdTdT-3′ (sense GCAAAGAAAUCAAGAACAUTT; antisense AUGUUCUUGAUUUCUUUGCTT; sugars from the 5' end r19 d2, backbone not given here)", "values": [
      {"measurement": "inhibitory activities on FAM3B gene (target of FAM3B)", "setting": "[1]", "result": "80-97%"}
    ]},
    {"substance": "FAM3B-42: siRNA, mouse FAM3B; sense 5′-CCGAAGCAUUGGAGAGAGAdTdT-3′; antisense 5′-UCUCUCUCCAAUGCUUCGGdTdT-3′ (sense CCGAAGCAUUGGAGAGAGATT; antisense UCUCUCUCCAAUGCUUCGGTT; chemistry not fully specified)", "values": [
      {"measurement": "inhibitory activities on FAM3B gene (target of FAM3B)", "setting": "[1]", "result": "80-97%"}
    ]},
    {"substance": "FAM3B-35: siRNA, mouse FAM3B; sense 5′-CCAGCACUCUCUACAACAUdTdT-3′; antisense 5′-AUGUUGUAGAGAGUGCUGGdTdT-3′ (sense CCAGCACUCUCUACAACAUTT; antisense AUGUUGUAGAGAGUGCUGGTT; chemistry not fully specified)", "values": [
      {"measurement": "inhibitory activities on FAM3B gene (target of FAM3B)", "setting": "[1]", "result": "80-97%"}
    ]},
    {"substance": "FAM3B-24: siRNA, human FAM3B; sense 5′-GAGUAAAUGUGUUCUGUAUdTdT-3′; antisense 5′-AUACAGAACACAUUUACUCdTdT-3′ (sense GAGUAAAUGUGUUCUGUAUTT; antisense AUACAGAACACAUUUACUCTT; sugars from the 5' end r19 d2, backbone not given here)", "values": [
      {"measurement": "inhibitory rate on FAM3B mRNA in HepG2 cells", "setting": "[2]", "result": "higher than 80%"},
      {"measurement": "inhibitory rate on FAM3B protein level in HepG2 cells", "setting": "[3]", "result": "higher than 80%"}
    ]},
    {"substance": "FAM3B-38: siRNA, mouse FAM3B; sense 5′-GCCAUAGAAGCCCUUGGAAdTdT-3′; antisense 5′-UUCCAAGGGCUUCUAUGGCdTdT-3′ (sense GCCAUAGAAGCCCUUGGAATT; antisense UUCCAAGGGCUUCUAUGGCTT; chemistry not fully specified)", "values": [
      {"measurement": "inhibitory activities on FAM3B gene (target of FAM3B)", "setting": "[1]", "result": "80-97%"}
    ]},
    {"substance": "FAM3B-15: siRNA, human FAM3B; sense 5′-GCACUUGGAAGUAAAGAAAdTdT-3′; antisense 5′-UUUCUUUACUUCCAAGUGCdTdT-3′ (sense GCACUUGGAAGUAAAGAAATT; antisense UUUCUUUACUUCCAAGUGCTT; sugars from the 5' end r19 d2, backbone not given here)", "values": [
      {"measurement": "inhibitory rate on FAM3B mRNA in HepG2 cells", "setting": "[2]", "result": "higher than 80%"},
      {"measurement": "inhibitory rate on FAM3B protein level in HepG2 cells", "setting": "[3]", "result": "higher than 80%"}
    ]},
    {"substance": "FAM3B-17: siRNA, human FAM3B; sense 5′-GGUCUAGCUGGGUAUUUAUdTdT-3′; antisense 5′-AUAAAUACCCAGCUAGACCdTdT-3′ (sense GGUCUAGCUGGGUAUUUAUTT; antisense AUAAAUACCCAGCUAGACCTT; sugars from the 5' end r19 d2, backbone not given here)", "values": [
      {"measurement": "inhibitory rate on FAM3B mRNA in HepG2 cells", "setting": "[2]", "result": "higher than 80%"},
      {"measurement": "inhibitory rate on FAM3B protein level in HepG2 cells", "setting": "[3]", "result": "higher than 80%"}
    ]},
    {"substance": "FAM3B-40: siRNA, mouse FAM3B; sense 5′-GAAUGUGGCAAGAGGGAUAdTdT-3′; antisense 5′-UAUCCCUCUUGCCACAUUCdTdT-3′ (sense GAAUGUGGCAAGAGGGAUATT; antisense UAUCCCUCUUGCCACAUUCTT; sugars from the 5' end r19 d2, backbone not given here)", "values": [
      {"measurement": "inhibitory activities on FAM3B gene (target of FAM3B)", "setting": "[1]", "result": "80-97%"}
    ]},
    {"substance": "FAM3B-41: siRNA, mouse FAM3B; sense 5′-UCAGAAAUCGAGAGAGAAAdTdT-3′; antisense 5′-UUUCUCUCUCGAUUUCUGAdTdT-3′ (sense UCAGAAAUCGAGAGAGAAATT; antisense UUUCUCUCUCGAUUUCUGATT; chemistry not fully specified)", "values": [
      {"measurement": "inhibitory activities on FAM3B gene (target of FAM3B)", "setting": "[1]", "result": "80-97%"}
    ]},
    {"substance": "FAM3B-20: siRNA, human FAM3B; sense 5′-GCUAAGAACAACAGAUAUUdTdT-3′; antisense 5′-AAUAUCUGUUGUUCUUAGCdTdT-3′ (sense GCUAAGAACAACAGAUAUUTT; antisense AAUAUCUGUUGUUCUUAGCTT; sugars from the 5' end r19 d2, backbone not given here)", "values": [
      {"measurement": "inhibitory rate on FAM3B mRNA in HepG2 cells", "setting": "[2]", "result": "higher than 80%"},
      {"measurement": "inhibitory rate on FAM3B protein level in HepG2 cells", "setting": "[3]", "result": "higher than 80%"}
    ]},
    {"substance": "FAM3B-46: chemically modified mouse FAM3B siRNA (2′-O-methyl sense with cholesterol, 2′-fluoro antisense); 5-UCAGAAAUCGAGAGAGAAAdTdT; 5-UUUCUCUCUCGAUUUCUGAdTdT (sense UCAGAAAUCGAGAGAGAAATT; antisense UUUCUCUCUCGAUUUCUGATT; Sense 2'-OMe, antisense 2'-F at italic positions, sense cholesterol at terminus, further chemistry not given here)", "values": [
      {"measurement": "inhibitory rate on expression of hepatic FAM3B gene (mRNA)", "setting": "[4]", "result": "higher than 60%"}
    ]}
  ]
}
